Literature values as cited in patent US7678363B2, “Methods of treating psychiatric conditions comprising administration of muscarinic agents in combination with SSRIs” (priority 2005, dated 2010).
At least one read-out could not be matched to a standard name with certainty.

Settings: cited from earlier work

Row | SMILES | blood-brain barrier permeability
1 | N[C@](CC1c2ccccc2Oc2ccccc21)(C(=O)O)[C@H]1C[C@@H]1C(=O)O [LY341495, (2S)-2-amino-2-(1S,2S-2-carboxycycloprop-1-yl)-3-(xanth-9-yl)propanoic acid] | readily permeably across the blood-brain barrier
2 | N[C@@]1(C(=O)O)CO[C@H]2[C@H](C(=O)O)[C@H]21 [LY379268, (−)-2-Oxa-4-aminobicyclohexane-4,6-dicarboxylic acid] | readily permeable across the blood-brain barrier
